Reference: the supplement of paper PMC10849652
The list shows a part of the results.

Sequences of proteins named here, by UniProt entry; tags and fusion partners are left off. A change or cut given only in a name is not applied to a line headed by its entry.
UniProt P62256: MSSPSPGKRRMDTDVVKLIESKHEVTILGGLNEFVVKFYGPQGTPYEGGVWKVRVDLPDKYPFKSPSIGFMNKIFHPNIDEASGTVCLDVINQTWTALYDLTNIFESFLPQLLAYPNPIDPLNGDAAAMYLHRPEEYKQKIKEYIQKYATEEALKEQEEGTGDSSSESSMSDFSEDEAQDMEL
UniProt Q6IBS0: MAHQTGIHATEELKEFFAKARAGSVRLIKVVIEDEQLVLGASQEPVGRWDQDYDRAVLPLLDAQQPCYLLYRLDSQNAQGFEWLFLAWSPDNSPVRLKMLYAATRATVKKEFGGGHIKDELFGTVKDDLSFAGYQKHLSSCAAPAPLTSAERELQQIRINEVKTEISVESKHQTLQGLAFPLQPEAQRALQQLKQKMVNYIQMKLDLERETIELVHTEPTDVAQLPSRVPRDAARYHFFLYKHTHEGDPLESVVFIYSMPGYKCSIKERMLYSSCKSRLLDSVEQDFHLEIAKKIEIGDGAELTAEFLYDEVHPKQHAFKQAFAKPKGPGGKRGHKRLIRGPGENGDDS
UniProt Q14166: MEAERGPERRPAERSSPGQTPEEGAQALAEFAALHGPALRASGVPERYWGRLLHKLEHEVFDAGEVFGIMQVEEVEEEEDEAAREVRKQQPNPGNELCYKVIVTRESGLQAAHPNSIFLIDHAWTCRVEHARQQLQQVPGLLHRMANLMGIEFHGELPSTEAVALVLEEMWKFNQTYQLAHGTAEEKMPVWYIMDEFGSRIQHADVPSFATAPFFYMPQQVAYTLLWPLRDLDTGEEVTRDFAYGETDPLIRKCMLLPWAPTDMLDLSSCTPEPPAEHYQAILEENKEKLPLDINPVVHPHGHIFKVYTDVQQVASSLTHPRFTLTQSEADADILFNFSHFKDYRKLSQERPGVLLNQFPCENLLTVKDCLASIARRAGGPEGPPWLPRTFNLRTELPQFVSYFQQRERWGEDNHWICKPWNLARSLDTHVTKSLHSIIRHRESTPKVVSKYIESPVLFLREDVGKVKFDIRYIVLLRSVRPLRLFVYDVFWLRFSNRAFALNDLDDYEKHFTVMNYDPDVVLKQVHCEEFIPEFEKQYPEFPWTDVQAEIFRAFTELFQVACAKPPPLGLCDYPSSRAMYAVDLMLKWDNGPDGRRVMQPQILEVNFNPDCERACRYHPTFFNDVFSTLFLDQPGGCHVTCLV
UniProt Q8TBC4: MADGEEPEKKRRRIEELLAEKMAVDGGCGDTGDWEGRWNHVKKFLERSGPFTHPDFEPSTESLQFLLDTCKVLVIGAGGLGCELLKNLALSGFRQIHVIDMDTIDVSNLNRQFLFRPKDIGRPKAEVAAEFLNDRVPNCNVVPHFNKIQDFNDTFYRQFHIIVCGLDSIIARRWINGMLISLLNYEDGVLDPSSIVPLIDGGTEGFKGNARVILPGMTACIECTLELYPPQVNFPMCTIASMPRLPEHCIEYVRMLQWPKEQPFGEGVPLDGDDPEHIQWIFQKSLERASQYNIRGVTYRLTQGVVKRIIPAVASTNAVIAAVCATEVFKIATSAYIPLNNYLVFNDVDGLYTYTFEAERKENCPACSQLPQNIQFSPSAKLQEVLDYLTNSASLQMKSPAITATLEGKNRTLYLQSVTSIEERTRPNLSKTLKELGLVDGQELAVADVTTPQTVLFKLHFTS
UniProt Q13509, whole entry, looked up: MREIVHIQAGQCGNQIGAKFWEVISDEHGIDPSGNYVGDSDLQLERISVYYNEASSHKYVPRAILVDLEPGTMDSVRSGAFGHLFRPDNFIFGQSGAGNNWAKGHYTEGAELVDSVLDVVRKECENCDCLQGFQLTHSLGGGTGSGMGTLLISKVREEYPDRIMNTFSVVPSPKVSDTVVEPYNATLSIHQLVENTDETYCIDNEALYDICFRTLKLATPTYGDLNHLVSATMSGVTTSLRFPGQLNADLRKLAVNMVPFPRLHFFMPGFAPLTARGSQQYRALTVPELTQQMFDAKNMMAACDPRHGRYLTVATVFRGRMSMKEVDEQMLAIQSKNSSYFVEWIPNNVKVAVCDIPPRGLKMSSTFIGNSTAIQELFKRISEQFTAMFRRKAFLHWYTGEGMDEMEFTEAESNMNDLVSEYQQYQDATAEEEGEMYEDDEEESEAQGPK
UniProt Q9BSJ2, whole entry, looked up: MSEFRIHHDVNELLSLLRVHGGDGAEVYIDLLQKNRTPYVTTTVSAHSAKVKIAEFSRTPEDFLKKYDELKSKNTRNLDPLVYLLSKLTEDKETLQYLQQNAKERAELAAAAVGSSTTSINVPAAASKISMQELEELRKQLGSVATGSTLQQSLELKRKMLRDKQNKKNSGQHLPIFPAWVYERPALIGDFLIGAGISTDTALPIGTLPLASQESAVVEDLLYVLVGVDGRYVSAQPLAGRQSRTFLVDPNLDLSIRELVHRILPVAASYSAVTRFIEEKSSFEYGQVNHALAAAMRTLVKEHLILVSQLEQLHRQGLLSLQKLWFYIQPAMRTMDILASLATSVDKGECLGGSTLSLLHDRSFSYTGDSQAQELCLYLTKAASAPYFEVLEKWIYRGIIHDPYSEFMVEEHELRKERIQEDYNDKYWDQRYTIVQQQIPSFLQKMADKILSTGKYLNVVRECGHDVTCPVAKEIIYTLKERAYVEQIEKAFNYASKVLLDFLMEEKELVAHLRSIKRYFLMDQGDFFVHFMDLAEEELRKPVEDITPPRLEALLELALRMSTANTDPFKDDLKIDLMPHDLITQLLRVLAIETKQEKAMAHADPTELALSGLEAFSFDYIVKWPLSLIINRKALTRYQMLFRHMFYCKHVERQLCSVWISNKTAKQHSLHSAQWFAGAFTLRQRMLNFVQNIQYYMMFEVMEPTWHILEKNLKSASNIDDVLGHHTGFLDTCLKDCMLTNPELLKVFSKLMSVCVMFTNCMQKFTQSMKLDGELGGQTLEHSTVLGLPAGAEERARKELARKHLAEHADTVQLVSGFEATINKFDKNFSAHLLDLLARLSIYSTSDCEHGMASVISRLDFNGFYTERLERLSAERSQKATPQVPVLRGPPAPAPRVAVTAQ
UniProt Q2NL82: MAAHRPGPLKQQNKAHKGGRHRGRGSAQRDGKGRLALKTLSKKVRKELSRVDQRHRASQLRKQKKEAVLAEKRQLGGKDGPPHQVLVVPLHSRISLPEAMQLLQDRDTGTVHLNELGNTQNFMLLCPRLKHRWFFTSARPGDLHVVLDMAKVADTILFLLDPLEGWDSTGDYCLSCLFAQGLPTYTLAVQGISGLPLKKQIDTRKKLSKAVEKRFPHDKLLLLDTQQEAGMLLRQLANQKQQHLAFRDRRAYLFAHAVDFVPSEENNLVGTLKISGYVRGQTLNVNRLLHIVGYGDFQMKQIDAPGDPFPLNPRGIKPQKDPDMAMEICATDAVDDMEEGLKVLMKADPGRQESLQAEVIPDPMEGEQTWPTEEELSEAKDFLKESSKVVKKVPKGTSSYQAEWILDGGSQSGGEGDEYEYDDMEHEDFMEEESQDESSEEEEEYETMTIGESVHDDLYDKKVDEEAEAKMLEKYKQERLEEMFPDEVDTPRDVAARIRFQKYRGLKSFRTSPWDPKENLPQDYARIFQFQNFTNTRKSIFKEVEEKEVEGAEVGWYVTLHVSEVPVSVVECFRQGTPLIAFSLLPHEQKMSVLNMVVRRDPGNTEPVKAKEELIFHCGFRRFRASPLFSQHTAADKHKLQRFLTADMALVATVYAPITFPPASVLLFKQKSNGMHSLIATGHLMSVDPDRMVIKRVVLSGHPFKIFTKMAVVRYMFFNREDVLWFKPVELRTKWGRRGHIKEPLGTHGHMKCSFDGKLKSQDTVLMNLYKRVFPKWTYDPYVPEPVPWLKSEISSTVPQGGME
UniProt Q9BTX7: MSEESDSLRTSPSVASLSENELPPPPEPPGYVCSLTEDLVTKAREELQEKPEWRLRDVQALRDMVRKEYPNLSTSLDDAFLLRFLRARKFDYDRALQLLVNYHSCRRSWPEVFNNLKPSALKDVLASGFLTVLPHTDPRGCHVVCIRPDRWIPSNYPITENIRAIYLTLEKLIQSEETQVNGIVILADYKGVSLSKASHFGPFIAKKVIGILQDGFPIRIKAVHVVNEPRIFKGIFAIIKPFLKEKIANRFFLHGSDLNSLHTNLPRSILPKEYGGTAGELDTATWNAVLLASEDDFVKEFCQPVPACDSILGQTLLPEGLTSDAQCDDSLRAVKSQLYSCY
UniProt Q5JXB2: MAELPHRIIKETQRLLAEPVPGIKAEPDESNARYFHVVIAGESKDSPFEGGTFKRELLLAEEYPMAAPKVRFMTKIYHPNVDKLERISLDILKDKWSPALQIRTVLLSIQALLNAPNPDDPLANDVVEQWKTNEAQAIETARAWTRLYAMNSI
UniProt Q12792, whole entry, looked up: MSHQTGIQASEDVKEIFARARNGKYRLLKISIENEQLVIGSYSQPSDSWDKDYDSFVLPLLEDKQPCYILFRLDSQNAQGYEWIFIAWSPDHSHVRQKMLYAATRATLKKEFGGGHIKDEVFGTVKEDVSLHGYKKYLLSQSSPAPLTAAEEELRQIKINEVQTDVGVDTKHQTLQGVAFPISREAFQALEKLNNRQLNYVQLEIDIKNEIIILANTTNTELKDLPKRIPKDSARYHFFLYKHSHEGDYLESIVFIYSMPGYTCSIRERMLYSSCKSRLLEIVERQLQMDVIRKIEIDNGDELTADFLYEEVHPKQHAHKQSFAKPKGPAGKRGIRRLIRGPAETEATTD
UniProt Q712K3: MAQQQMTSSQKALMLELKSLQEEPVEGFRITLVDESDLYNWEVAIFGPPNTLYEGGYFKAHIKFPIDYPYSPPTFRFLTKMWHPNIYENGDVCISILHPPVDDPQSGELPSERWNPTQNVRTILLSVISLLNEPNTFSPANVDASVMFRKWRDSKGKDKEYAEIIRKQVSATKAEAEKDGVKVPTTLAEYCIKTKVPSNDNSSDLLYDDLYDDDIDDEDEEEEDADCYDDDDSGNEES
UniProt Q9GZZ9, whole entry, looked up: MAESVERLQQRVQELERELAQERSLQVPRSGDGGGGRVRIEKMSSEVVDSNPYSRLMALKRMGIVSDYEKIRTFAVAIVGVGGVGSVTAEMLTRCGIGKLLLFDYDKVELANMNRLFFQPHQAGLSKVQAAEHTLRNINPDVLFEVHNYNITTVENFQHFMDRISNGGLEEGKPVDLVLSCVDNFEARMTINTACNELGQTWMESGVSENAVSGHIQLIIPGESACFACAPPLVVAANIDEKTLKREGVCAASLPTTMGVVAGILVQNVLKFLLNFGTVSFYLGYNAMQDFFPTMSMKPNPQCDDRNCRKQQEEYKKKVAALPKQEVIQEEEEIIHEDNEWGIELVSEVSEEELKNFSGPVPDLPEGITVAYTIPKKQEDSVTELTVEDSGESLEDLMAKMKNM
UniProt Q9BRA2: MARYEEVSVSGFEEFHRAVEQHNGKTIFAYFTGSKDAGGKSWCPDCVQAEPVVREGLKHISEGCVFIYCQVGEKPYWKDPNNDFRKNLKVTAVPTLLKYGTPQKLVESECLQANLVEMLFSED
UniProt P23258, whole entry, looked up: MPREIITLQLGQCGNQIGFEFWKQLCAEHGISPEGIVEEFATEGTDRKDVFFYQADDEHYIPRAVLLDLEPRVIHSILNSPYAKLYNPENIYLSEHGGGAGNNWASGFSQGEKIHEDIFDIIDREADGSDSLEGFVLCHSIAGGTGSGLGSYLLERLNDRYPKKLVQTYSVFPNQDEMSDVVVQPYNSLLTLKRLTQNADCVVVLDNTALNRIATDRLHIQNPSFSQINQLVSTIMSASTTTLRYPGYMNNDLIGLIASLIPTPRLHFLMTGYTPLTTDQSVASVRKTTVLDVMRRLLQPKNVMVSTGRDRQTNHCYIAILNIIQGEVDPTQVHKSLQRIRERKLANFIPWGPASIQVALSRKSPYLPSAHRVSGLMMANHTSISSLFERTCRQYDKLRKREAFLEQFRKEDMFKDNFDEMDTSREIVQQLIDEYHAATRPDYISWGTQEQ
UniProt P61086: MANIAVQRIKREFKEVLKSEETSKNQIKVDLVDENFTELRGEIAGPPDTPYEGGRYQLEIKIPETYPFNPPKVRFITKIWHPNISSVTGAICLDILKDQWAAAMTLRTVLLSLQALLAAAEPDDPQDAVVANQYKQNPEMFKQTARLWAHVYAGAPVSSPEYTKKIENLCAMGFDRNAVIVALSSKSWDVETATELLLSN
UniProt O60637: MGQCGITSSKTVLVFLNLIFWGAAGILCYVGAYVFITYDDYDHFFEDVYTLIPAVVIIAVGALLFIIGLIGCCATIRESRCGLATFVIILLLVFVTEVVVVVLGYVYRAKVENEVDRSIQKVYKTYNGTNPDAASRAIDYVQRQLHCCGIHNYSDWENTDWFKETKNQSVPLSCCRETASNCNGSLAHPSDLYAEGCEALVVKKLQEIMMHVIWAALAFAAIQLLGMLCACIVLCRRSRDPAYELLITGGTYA
UniProt Q9NPD8: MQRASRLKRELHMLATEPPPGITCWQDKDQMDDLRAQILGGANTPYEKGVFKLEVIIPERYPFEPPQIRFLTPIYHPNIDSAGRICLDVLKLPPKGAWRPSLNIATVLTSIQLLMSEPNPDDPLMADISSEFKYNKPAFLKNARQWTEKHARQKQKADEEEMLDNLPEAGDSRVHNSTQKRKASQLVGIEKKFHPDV

Key:
Assay in all cases: log2 fold change, soluble protein after heating vs DMSO (PISA); higher = thermal stabilisation; K562 cells, 10 uM, 30 min; active = over 0.2 and 3.5 SD of the protein, either way, in both replicates (recomputed)
saracatinib = compound: CN1CCN(CCOc2cc(OC3CCOCC3)c3c(Nc4c(Cl)ccc5c4OCO5)ncnc3c2)CC1 [saracatinib]
Procedure, shortened: (§1)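 K562 cells at 2×10^6 cells/mL were treated for 30 min with 10 μM compound, and aliquots were heated for 3 min over 48°C-58°C before pooling. Extraction used PBS with 0.5% NP-40 at 4°C, and soluble protein was the supernatant after 21,000xg for 90 min, measured by TMTpro 16plex LC-MS/MS with channel sums equalised. Thermal stability values, relative to control samples and from duplicates, are log2 fold changes.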

sotrastaurin = compound: CN1CCN(c2nc(C3=C(c4c[nH]c5ccccc45)C(=O)NC3=O)c3ccccc3n2)CC1 [sotrastaurin]
Procedure, shortened: as §1

alvocidib = compound: CN1CC[C@H](c2c(O)cc(O)c3c(=O)cc(-c4ccccc4Cl)oc23)[C@H](O)C1 [alvocidib]
Procedure, shortened: as §1

Tubastatin A = compound: CN1CCc2c(c3ccccc3n2Cc2ccc(C(=O)NO)cc2)C1 [Tubastatin A]
Procedure, shortened: as §1

[1] = compound: CNC(=O)C1=CC=CC=C1NC2=NC(=NC=C2Cl)NC3=C(C=C(C=C3)N4CCOCC4)OC
Procedure, shortened: as §1

defactinib = compound: CNC(=O)c1ccc(Nc2ncc(C(F)(F)F)c(NCc3nccnc3N(C)S(C)(=O)=O)n2)cc1 [defactinib]
Procedure, shortened: as §1

rucaparib = compound: CNCc1ccc(-c2[nH]c3cc(F)cc4c3c2CCNC4=O)cc1 [rucaparib]
Procedure, shortened: as §1

[2] = compound: CNc1nc(-c2ccc3c(N)n[nH]c3c2)cc(N2C[C@@H](C(=O)NC3CCCCC3)CC[C@H]2C)n1
Procedure, shortened: as §1

encorafenib = compound: COC(=O)N[C@@H](C)CNc1nccc(-c2cn(C(C)C)nc2-c2cc(Cl)cc(NS(C)(=O)=O)c2F)n1 [encorafenib]
Procedure, shortened: as §1

[3] = compound: COC(=O)[C@H](CCSC)NC(=O)C1=C(C=C(C=C1)NC[C@H](CS)N)C2=CC=CC=C2
Procedure, shortened: as §1

Measured: log2 fold change

UBE2H (UniProt P62256)
inactive: saracatinib 0 | sotrastaurin -0.012 | alvocidib -0.028 | Tubastatin A -0.022 | [1] 0.031 | defactinib -0.04 | rucaparib -0.025 | [2] -0.086 | encorafenib 0.034 | [3] -0.001

TUBB (UniProt P07437)
inactive: saracatinib -0.033 | sotrastaurin 0.038 | alvocidib -0.108 | Tubastatin A -0.011 | [1] -0.057 | defactinib 0.004 | rucaparib -0.022 | [2] 0.02 | encorafenib -0.007 | [3] 0.006

TWF2 (UniProt Q6IBS0)
inactive: saracatinib 0.008 | sotrastaurin -0.031 | alvocidib -0.059 | Tubastatin A -0.017 | [1] 0.043 | defactinib -0.014 | rucaparib -0.055 | [2] 0.006 | encorafenib 0 | [3] 0.04

TTLL12 (UniProt Q14166)
inactive: saracatinib -0.131 | sotrastaurin -0.21 | alvocidib 0.115 | Tubastatin A 0.073 | [1] -0.025 | defactinib 0.034 | rucaparib 0.571 | [2] 0.019 | encorafenib 0.292 | [3] -0.057

TXNDC16 (UniProt Q9P2K2)
inactive: saracatinib -0.117 | sotrastaurin -0.043 | alvocidib 0.099 | Tubastatin A 0.045 | [1] -0.015 | defactinib -0.038 | rucaparib -0.099 | [2] 0.009 | encorafenib 0.063 | [3] 0.034

UBA3 (UniProt Q8TBC4)
inactive: saracatinib 0.04 | sotrastaurin -0.07 | alvocidib -0.154 | Tubastatin A 0.009 | [1] -0.027 | defactinib -0.067 | rucaparib -0.063 | [2] 0.051 | encorafenib 0.036 | [3] -0.011

U2SURP (UniProt O15042)
inactive: saracatinib -0.006 | sotrastaurin -0.133 | alvocidib -0.215 | Tubastatin A 0.108 | [1] -0.102 | defactinib -0.279 | rucaparib 0.104 | [2] -0.031 | encorafenib 0.141 | [3] -0.116

TUBB3 (UniProt Q13509)
inactive: saracatinib 0.062 | sotrastaurin 0.012 | alvocidib -0.039 | Tubastatin A -0.061 | [1] -0.088 | defactinib -0.025 | rucaparib 0.036 | [2] 0.021 | encorafenib -0.005 | [3] 0.016

UBE2I (UniProt P63279)
inactive: saracatinib 0 | sotrastaurin 0.017 | alvocidib -0.086 | Tubastatin A -0.044 | [1] -0.021 | defactinib 0.006 | rucaparib 0.019 | [2] 0.029 | encorafenib -0.014 | [3] -0.017

TUBGCP2 isoform 4 (UniProt Q9BSJ2)
inactive: saracatinib -0.099 | sotrastaurin -0.27 | alvocidib 0.069 | Tubastatin A 0.202 | [1] -0.04 | defactinib 0.06 | rucaparib 0.338 | [2] 0.075 | encorafenib 0.137 | [3] -0.075

UBE2L3 isoform 3 (UniProt P68036)
inactive: saracatinib 0.006 | sotrastaurin 0.054 | alvocidib -0.036 | Tubastatin A -0.009 | [1] -0.027 | defactinib 0.004 | rucaparib -0.008 | [2] -0.025 | encorafenib -0.048 | [3] 0.048

TSR1 (UniProt Q2NL82)
inactive: saracatinib -0.079 | sotrastaurin -0.042 | alvocidib 0.1 | Tubastatin A 0.2 | [1] -0.027 | defactinib 0.065 | rucaparib 0.117 | [2] 0.245 | encorafenib 0.161 | [3] -0.048

2 consecutive entries from above:
TWF2 (UniProt Q6IBS0)
inactive: saracatinib 0.008 | sotrastaurin -0.031 | alvocidib -0.059 | Tubastatin A -0.017 | [1] 0.043 | defactinib -0.014 | rucaparib -0.055 | [2] 0.006 | encorafenib 0 | [3] 0.04

TTLL12 (UniProt Q14166)
inactive: saracatinib -0.131 | sotrastaurin -0.21 | alvocidib 0.115 | Tubastatin A 0.073 | [1] -0.025 | defactinib 0.034 | rucaparib 0.571 | [2] 0.019 | encorafenib 0.292 | [3] -0.057

(further entries)

TTC17 (UniProt Q96AE7)
inactive: saracatinib -0.009 | sotrastaurin 0.078 | alvocidib 0.003 | Tubastatin A -0.012 | [1] 0.083 | defactinib 0.005 | rucaparib -0.068 | [2] -0.036 | encorafenib 0.074 | [3] 0.003

TTPAL (UniProt Q9BTX7)
inactive: saracatinib 0.182 | sotrastaurin -0.038 | alvocidib -0.142 | Tubastatin A 0.003 | [1] -0.108 | defactinib -0.048 | rucaparib -0.004 | [2] 0.058 | encorafenib 0.013 | [3] 0.017

UBE2NL (UniProt Q5JXB2)
inactive: saracatinib -0.018 | sotrastaurin -0.073 | alvocidib -0.037 | Tubastatin A 0 | [1] -0.008 | defactinib -0.006 | rucaparib -0.066 | [2] 0.026 | encorafenib 0.007 | [3] -0.046

UAP1L1 (UniProt Q3KQV9)
inactive: saracatinib 0.007 | sotrastaurin 0.012 | alvocidib 0.05 | Tubastatin A -0.085 | [1] -0.061 | defactinib -0.026 | rucaparib 0.087 | [2] 0.018 | encorafenib -0.015 | [3] 0.052

TWF1 (UniProt Q12792)
inactive: saracatinib -0.025 | sotrastaurin 0.015 | alvocidib -0.094 | Tubastatin A -0.018 | [1] 0.05 | defactinib -0.103 | rucaparib -0.002 | [2] 0.013 | encorafenib -0.012 | [3] 0.09

UBE2R2 (UniProt Q712K3)
inactive: saracatinib -0.005 | sotrastaurin -0.029 | alvocidib -0.086 | Tubastatin A -0.01 | [1] 0.014 | defactinib -0.027 | rucaparib -0.025 | [2] -0.008 | encorafenib 0.008 | [3] -0.021

UBA5 (UniProt Q9GZZ9)
inactive: saracatinib 0.02 | sotrastaurin 0.013 | alvocidib 0.029 | Tubastatin A -0.074 | [1] -0.004 | defactinib 0.003 | rucaparib -0.025 | [2] -0.038 | encorafenib 0.027 | [3] -0.002

TXNDC17 (UniProt Q9BRA2)
inactive: saracatinib 0.019 | sotrastaurin -0.046 | alvocidib -0.041 | Tubastatin A 0.022 | [1] -0.004 | defactinib -0.052 | rucaparib 0.004 | [2] -0.029 | encorafenib -0.022 | [3] 0.022

TTC1 (UniProt Q99614)
inactive: saracatinib -0.008 | sotrastaurin 0.064 | alvocidib 0.022 | Tubastatin A 0.007 | [1] -0.004 | defactinib -0.012 | rucaparib -0.006 | [2] -0.044 | encorafenib -0.045 | [3] 0.019

TTC27 (UniProt Q6P3X3)
inactive: saracatinib -0.107 | sotrastaurin -0.203 | alvocidib 0.072 | Tubastatin A 0.057 | [1] -0.061 | defactinib -0.093 | rucaparib 0.303 | [2] 0.095 | encorafenib 0.116 | [3] -0.091

TUBG1 (UniProt P23258)
inactive: saracatinib -0.028 | sotrastaurin 0 | alvocidib 0.018 | Tubastatin A 0.075 | [1] -0.03 | defactinib -0.004 | rucaparib 0.039 | [2] -0.063 | encorafenib -0.023 | [3] 0.031

UBE2K (UniProt P61086)
inactive: saracatinib 0.037 | sotrastaurin 0.002 | alvocidib -0.048 | Tubastatin A -0.037 | [1] 0.011 | defactinib -0.03 | rucaparib -0.071 | [2] -0.022 | encorafenib 0.014 | [3] 0.029

TSPAN3 (UniProt O60637)
inactive: saracatinib 0.04 | sotrastaurin 0.05 | alvocidib -0.033 | Tubastatin A -0.071 | [1] -0.001 | defactinib 0.047 | rucaparib -0.001 | [2] -0.004 | encorafenib 0.033 | [3] 0.081

UBE2M (UniProt P61081)
inactive: saracatinib 0.009 | sotrastaurin 0.021 | alvocidib -0.075 | Tubastatin A 0.022 | [1] 0.018 | defactinib -0.087 | rucaparib -0.041 | [2] -0.004 | encorafenib 0.022 | [3] -0.027

TXNRD2 (UniProt Q9NNW7)
inactive: saracatinib 0.043 | sotrastaurin 0.058 | alvocidib -0.067 | Tubastatin A -0.019 | [1] 0.117 | defactinib -0.047 | rucaparib -0.027 | [2] -0.064 | encorafenib 0.045 | [3] 0.029

UBE2T (UniProt Q9NPD8)
inactive: saracatinib -0.032 | sotrastaurin -0.045 | alvocidib -0.06 | Tubastatin A 0.138 | [1] -0.005 | defactinib -0.035 | rucaparib -0.049 | [2] 0.004 | encorafenib -0.027 | [3] -0.015

UBE2F isoform 2 (UniProt Q969M7)
inactive: saracatinib 0.031 | sotrastaurin 0.031 | alvocidib -0.064 | Tubastatin A 0.063 | [1] 0.038 | defactinib -0.012 | rucaparib -0.027 | [2] -0.051 | encorafenib -0.018 | [3] 0.014

TUFM (UniProt P49411)
inactive: saracatinib -0.057 | sotrastaurin -0.05 | alvocidib -0.197 | Tubastatin A -0.142 | [1] 0.017 | defactinib -0.049 | rucaparib -0.062 | [2] 0.099 | encorafenib 0.026 | [3] -0.031
